Test results: paper PMC5427286
No constants are given. Whether binding was seen depends on the method and setting.

The chains behind the UniProt entries cited, without tags or fusion partners. Residues count along the entry.
UniProt P31170, residues 44-227: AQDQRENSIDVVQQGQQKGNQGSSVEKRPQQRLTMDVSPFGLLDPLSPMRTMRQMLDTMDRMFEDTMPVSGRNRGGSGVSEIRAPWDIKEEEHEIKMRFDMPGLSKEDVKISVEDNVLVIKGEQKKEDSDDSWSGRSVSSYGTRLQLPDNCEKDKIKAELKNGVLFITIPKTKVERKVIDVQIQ

Molecular target: Hsp21, the 21-kDa chloroplast-localized small heat-shock protein of Arabidopsis thaliana (A. thaliana) (UniProt P31170)
Assay: SEC; HiLoad/Superdex 200 HR 16/60; pooled Hsp21 incubated with 4 M urea for 20 min on ice before loading; a step of the purification; both purified

Hsp21, the 21-kDa chloroplast-localized small heat-shock protein of Arabidopsis thaliana (from UniProt P31170 44-227)
binding: no binding (condition: with 4 M urea)
